In paper PMC5240526:

Tests used:
Assay in all cases: CE-LIFP
[1] = biological target: RecA P67D P68D (Escherichia coli) (UniProt P0A7G6); settings: physiological ATP, lightly assembled filament, less density than wild type; 20 mM Tris-HCl pH 7.4, 10 mM Mg2+, 10 nM oligo, 0-3.0 uM RecA, 37 C 10 min; CE in 25 mM Tris, 192 mM glycine, 0.5 mM Ca2+, pH 8.3, room temperature; recombinant protein; label: 5'-TMR; single-stranded DNA
[2] = biological target: RecA P67E P68E (Escherichia coli) (UniProt P0A7G6); settings: physiological ATP, lightly assembled filament, less density than wild type; 20 mM Tris-HCl pH 7.4, 10 mM Mg2+, 10 nM oligo, 0-3.0 uM RecA, 37 C 10 min; CE in 25 mM Tris, 192 mM glycine, 0.5 mM Ca2+, pH 8.3, room temperature; recombinant protein; label: 5'-TMR; single-stranded DNA
[3] = biological target: RecA P67K P68K (Escherichia coli) (UniProt P0A7G6); settings: physiological ATP, moderately assembled and saturated filaments; 20 mM Tris-HCl pH 7.4, 10 mM Mg2+, 10 nM oligo, 0-3.0 uM RecA, 37 C 10 min; CE in 25 mM Tris, 192 mM glycine, 0.5 mM Ca2+, pH 8.3, room temperature; recombinant protein; label: 5'-TMR; single-stranded DNA
[4] = biological target: RecA P67R P68R (Escherichia coli) (UniProt P0A7G6); settings: physiological ATP, moderately assembled and saturated filaments; 20 mM Tris-HCl pH 7.4, 10 mM Mg2+, 10 nM oligo, 0-3.0 uM RecA, 37 C 10 min; CE in 25 mM Tris, 192 mM glycine, 0.5 mM Ca2+, pH 8.3, room temperature; recombinant protein; label: 5'-TMR; single-stranded DNA
[5] = biological target: RecA P67Y P68Y (Escherichia coli) (UniProt P0A7G6); settings: physiological ATP, moderately assembled and saturated filaments; 20 mM Tris-HCl pH 7.4, 10 mM Mg2+, 10 nM oligo, 0-3.0 uM RecA, 37 C 10 min; CE in 25 mM Tris, 192 mM glycine, 0.5 mM Ca2+, pH 8.3, room temperature; recombinant protein; label: 5'-TMR; single-stranded DNA
[6] = biological target: RecA wild type (Escherichia coli) (UniProt P0A7G6); settings: 0.1 mM ATPgS, no Mg2+, 3.0 uM RecA, saturated filament; 20 mM Tris-HCl pH 7.4, 10 mM Mg2+, 10 nM oligo, 0-3.0 uM RecA, 37 C 10 min; CE in 25 mM Tris, 192 mM glycine, 0.5 mM Ca2+, pH 8.3, room temperature; recombinant protein; label: 5'-TMR; single-stranded DNA

Measured: binding result

TTTCCTACCTTAAGATCCTTCCAGTCTCCGCCGGCCAGTGTTACCCTTAGAGCTCATACCATTCGCCAATTTCTTCGCACGTT [TMR-ss83mer]
binds: all assays above

The exact form of at least one protein or probe is not confirmed. At least one verdict rests on a figure or table, not on a statement of the authors.
